The list does not hold the whole screen: it gathers tests that were run many times, whatever their T/C, doses with no T/C, and many T/C values between a quarter and a half above the control. Other doses and runs of a compound stand elsewhere. T/C: endpoint of the treated group in % of that of the vehicle group. Schedules are NCI's codes, read here as Q, the interval in days (D) or hours (H), X, the number of doses. Some T/C values are followed by the survivors on the day toxicity was checked, most often the fifth; without a count, all were alive then. Some values lie below zero, which means that the treated tumours became smaller. Some entries hold several experiments; the values are given in rising order. Some doses have a count of surviving animals in place of a T/C: the source files T/C as zero there, which appears to mark a toxic dose or a test without result, not a measured value. Counts of survivors are from the toxicity check (mostly the fifth day) where no day follows; animals may have died later.
Tested on: nude mice, HT29 intrarenal xenograft, tumor weight T/C
Assay: NCI In Vivo Anticancer Drug Screen. Data for tumor model HT29;CX-1 Human Adenocarcinoma (MER+) (intrarenal inoculation) in NU/NU Swiss (nude) mice
Details: T/C endpoint: mean tumor weight change, higher T/C = larger tumour; for T/C: evaluated on day 11
Summary of the method: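 Endpoint measured as tumor size or survival; ratio reported is treated group over vehicle controls.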

[1] = dose: 1.25 mg/kg/injection, schedule: Q01DX010 (sc), vehicle: water

O=C1N[C@@H]([C@H]2CC[C@H](Cl)CN2)C(=O)N[C@H]1[C@H]1CC[C@H](Cl)CN1
T/C (dose: 0.32 mg/kg/injection, schedule: Q01DX010 (sc), vehicle: water): 42, 50 [2 of 2 alive on day 11], 88 [2 of 3 alive on day 11], 104 % of control | T/C (dose: 0.63 mg/kg/injection, schedule: Q01DX010 (sc), vehicle: water): -3 [2 of 3 alive on day 11], 17, 27 [5 of 6 alive on day 11], 78, 105 % of control | T/C [1]: 7 and 78 % of control [5 of 6 alive on day 11] | survivor count [1]: 0 of 3 on day 11 and 1 of 6 on day 11 | survivor count (dose: 2.5 mg/kg/injection, schedule: Q01DX010 (sc), vehicle: water): 0 of 3 on day 11 | survivor count (dose: 5.0 mg/kg/injection, schedule: Q01DX010 (sc), vehicle: water): 0 of 3 on day 11 | survivor count (dose: 10.0 mg/kg/injection, schedule: Q01DX010 (sc), vehicle: water): 0 of 3 on day 11

Cc1c(N)nc(C(CC(N)=O)NCC(N)C(N)=O)nc1C(=O)NC(C(=O)NC(C)C(O)CC(=O)NC(C(=O)NC(OC1OC(C)C(N)C(O)C1O)C(O)c1nc(-c2nc(C(=O)NCCCC(N)CC(=O)NCCCNCCCCN)cs2)cs1)C(C)O)C(OC1OC(CO)C(O)C(O)C1OC1OC(CO)C(O)C(OC(N)=O)C1O)c1cnc[nH]1 (stereo unspecified)
survivor count (dose: 32.0 mg/kg/injection, schedule: Q04DX004 (sc), vehicle: saline): 0 of 3 on day 15 | survivor count (dose: 64.0 mg/kg/injection, schedule: Q04DX004 (sc), vehicle: saline): 0 of 3 on day 15

c1csc(C[N+]23CN4CN(CN(C4)C2)C3)c1
survivor count (dose: 800.0 mg/kg/injection, schedule: Q04DX004 (sc), vehicle: saline): 0 of 6 on day 15

Nc1nc(N)c2c(ccc3c2ccn3Cc2cccc([N+](=O)[O-])c2)n1
survivor count (dose: 300.0 mg/kg/injection, schedule: Q04DX004 (sc), vehicle: saline with Tween-80): 0 of 6 on day 15

NS(=O)(=O)OCCCCCCCOS(N)(=O)=O
survivor count (dose: 300.0 mg/kg/injection, schedule: Q04DX004 (ip), vehicle: saline with Tween-80): 0 of 6 on day 15

Nc1ncnc2c1ncn2C1OC(CO)C(O)C1O (stereo unspecified)
survivor count (dose: 300.0 mg/kg/injection, schedule: Q04DX004 (sc), vehicle: saline): 0 of 6 on day 15

NC(=O)c1[nH]nc(C2OC(CO)C(O)C2O)c1O (stereo unspecified)
survivor count (dose: 20.0 mg/kg/injection, schedule: Q04DX004 (sc), vehicle: saline): 1 of 6 on day 15 | survivor count (dose: 40.0 mg/kg/injection, schedule: Q04DX004 (sc), vehicle: saline): 0 of 6 on day 15 | survivor count (dose: 80.0 mg/kg/injection, schedule: Q04DX004 (sc), vehicle: saline): 0 of 6 on day 15

CCN(CC)c1ccc2cc(-c3nc4ccccc4n3C)c(=O)oc2c1
survivor count (dose: 600.0 mg/kg/injection, schedule: Q04DX004 (sc), vehicle: Klucel (hydroxypropylcellulose) (HPC)): 1 of 6 on day 15

CC[C@@]1(O)C[C@H](OC2CC(N(C)C)C(OC3CC(O)C(OC4CCC(=O)C(C)O4)C(C)O3)C(C)O2)c2c(cc3c(c2O)C(=O)c2c(O)cccc2C3=O)[C@H]1C(=O)OC (stereo partly specified)
survivor count (dose: 4.0 mg/kg/injection, schedule: Q01DX010 (ip), vehicle: water): 1 of 3 on day 11 | survivor count (dose: 8.0 mg/kg/injection, schedule: Q01DX010 (ip), vehicle: water): 0 of 3 on day 11 | survivor count (dose: 16.0 mg/kg/injection, schedule: Q01DX010 (ip), vehicle: water): 0 of 3 on day 11 | survivor count (dose: 16.0 mg/kg/injection, schedule: Q04DX004 (ip), vehicle: water): 0 of 6 on day 15 | survivor count (dose: 16.0 mg/kg/injection, schedule: Q04DX004 (sc), vehicle: water): 1 of 3 on day 15 | survivor count (dose: 32.0 mg/kg/injection, schedule: Q04DX004 (sc), vehicle: water): 0 of 3 on day 15

COc1cccc2c1C(=O)c1c(O)c3c(c(O)c1C2=O)C[C@@](O)(C(=O)CO)C[C@@H]3OC1CC(OC(C)=O)C(OC(C)=O)C(C)O1 (stereo partly specified)
survivor count (dose: 50.0 mg/kg/injection, schedule: Q01DX010 (sc), vehicle: distilled water + Tween-80): 0 of 3 on day 11 | survivor count (dose: 100.0 mg/kg/injection, schedule: Q01DX010 (sc), vehicle: distilled water + Tween-80): 0 of 3 on day 11 | survivor count (dose: 200.0 mg/kg/injection, schedule: Q01DX010 (sc), vehicle: distilled water + Tween-80): 0 of 3 on day 11

Reference: PubChem BioAssay AID206 (DTP/NCI, 2004)
